# Measured values reported in patent publication US12398117B2, “Heteroarylamidopyridinol derivative and pharmaceutical composition comprising same as active ingredient for prevention or treatment of autoimmune disease” (INNOVO THERAPEUTICS INC., priority 2019, dated 2025).
# How the values were obtained:
# [1] = test system: adhesion of intestinal epithelial cells (HT-29) and monocytic cells (U937) induced by TNF-α; assay: Inhibition of TNF-α-induced adhesion of monocytes and intestinal epithelial cells; format: cell-based; conditions: Homo sapiens
# Description: HT-29 human colon cancer-derived epithelial cells and U937 human-derived monocytes were cultured in RPMI 1640 medium containing 10% FBS and 1% penicillin/streptomycin (PS) in a 37° C., 5% CO2 incubator. When the cells grew more than 80% of the bottom area of the culture flask, they were passaged at a ratio of 1:3 and used in this experiment. HT-29 cells were cultured in a 24-well plate at the density of 2×10^5 cells/cm^2, and the test drug was pretreated in a medium containing 1% FBS and 1% PS for 1 hour. Thereafter, 10 μg/mL of BCECF-AM was treated thereto and reacted at 37° C. for 30 minutes. U937 cells loaded with BCECF and TNF-α (10 ng/mL) were reacted with HT-29 cells previously treated with the test drug at 37° C. for 3 hours. Upon completion of the reaction, the medium was removed, and the culture flask was washed twice with PBS to remove non-adherent U937 cells. In the next step, the cells were lysed by treating with 0.1% Triton X-100 (0.1 M Tris) and reacted at room temperature for 30 minutes. Then, fluorescence was measured and quantified using a fluostar optima microplate reader (BMG Labtechnologies, Germany) (Carvalho et al., 1996; Thapa et al., 2008).
# [2] = test system: adhesion of intestinal epithelial cells (HT-29) and monocytic cells (U937) induced by IL-6; assay: Inhibition of IL-6-induced adhesion of monocytes and intestinal epithelial cells; format: cell-based; conditions: Homo sapiens; inhibition of adhesion by IL-6
# Description: The inhibitory activity test for intestinal epithelial cell-monocyte adhesion by IL-6 was performed using the same method as in the case of TNF-α. HT-29 cells were cultured in a 24-well plate at the density of 2×10^5 cells/cm^2, and the test drug was pretreated in a medium containing 1% FBS and 1% PS for 1 hour. Thereafter, 10 μg/mL of BCECF-AM was treated thereto and reacted at 37° C. for 30 minutes. U937 cells loaded with BCECF and IL-6 (10 ng/mL) were reacted with HT-29 cells previously treated with the test drug at 37° C. for 3 hours. Upon completion of the reaction, the medium was removed, and the culture flask was washed twice with PBS to remove non-adherent U937 cells. In the next step, the cells were lysed by treating with 0.1% Triton X-100 (0.1 M Tris) and reacted at room temperature for 30 minutes. Then, fluorescence was measured and quantified using a fluostar optima microplate reader (BMG Labtechnologies, Germany).
smiles,measurement,setting,value
"C[C@@H]1CCN(C(=O)CC#N)C[C@@H]1N(C)c1ncnc2[nH]ccc12 [Tofacitinib, reference compound]",IC50,[1],700 nM
same,IC50,[2],440 nM
